Experimental data: PubChem BioAssay AID1259254 (NCATS, 2017)
Test: 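Genome-wide screen for genes that prevent DNA re-replication in cancer cells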 (primary screen). System: human HCT116 colorectal cancer cells. Reagents: single siRNA against human genes. Time to read-out: 3 days. Detection: 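Imaged Hoechst DNA stain sorts each cell into a cycle phase by DNA amount; per plate, G2 fraction set to 0% for non-targeting and 100% for GMNN siRNA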. Direction: G2 robust z-score and G2 cells, % of GMNN control: higher = more G2 cells, more excess DNA replication. Active means: 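An siRNA counts as active if its G2 robust z-score lies at least 5 MADs above the screen median; here such calls match roughly 38% of GMNN control or more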.
In all, the deposit lists about 59,000 reagents; shown is a random part of them. In the full data, about 1,550 (2.6%) got an active call. 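G2 share is only a proxy for re-replication; each gene was hit by three separate siRNAs, and active genes were retested.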 Entries without a mark were called inactive. The numbers tell different reagents against one gene apart. Further read-outs or replicates are left out here. Reagent sequences are not shown. The record does not give: the amount of reagent.

After knock-down of VPS25 (vacuolar protein sorting 25 homolog) #1, the screen gave G2 robust z-score 2.1; G2 cells, % of GMNN control 17.7.
VPS25 (vacuolar protein sorting 25 homolog) #2 gave G2 robust z-score -0.498; G2 cells, % of GMNN control -0.535.
Depletion of VPS25 (vacuolar protein sorting 25 homolog) #3 gave: G2 robust z-score -0.72; G2 cells, % of GMNN control -2.1.
After knock-down of RAB3C (RAB3C, member RAS oncogene family) #1, the record shows G2 robust z-score 0.268; G2 cells, % of GMNN control 4.85.
After knock-down of RAB3C (RAB3C, member RAS oncogene family) #2, the screen gave G2 robust z-score 0.998; G2 cells, % of GMNN control 9.99.
Silencing of RAB3C (RAB3C, member RAS oncogene family) #3 gave: G2 robust z-score 0.66; G2 cells, % of GMNN control 7.61.
With knock-down of LGSN (lengsin, lens protein with glutamine synthetase domain) #1, the record shows G2 robust z-score -1.35; G2 cells, % of GMNN control -6.52.
With knock-down of LGSN (lengsin, lens protein with glutamine synthetase domain) #2, the record shows G2 robust z-score -0.333; G2 cells, % of GMNN control 0.626.
Against LGSN (lengsin, lens protein with glutamine synthetase domain) #3, the values are G2 robust z-score -1.1; G2 cells, % of GMNN control -4.8.
Against DHX16 (DEAH-box helicase 16) #1 the deposit lists G2 robust z-score -0.249; G2 cells, % of GMNN control 1.22.
DHX16 (DEAH-box helicase 16) #2 scored G2 robust z-score 0.0469; G2 cells, % of GMNN control 3.3.
Knock-down of DHX16 (DEAH-box helicase 16) #3 resulted in: G2 robust z-score -0.525; G2 cells, % of GMNN control -0.723.
MFN1P1 (MFN1 pseudogene 1) #1 showed G2 robust z-score -0.0879; G2 cells, % of GMNN control 2.35.
MFN1P1 (MFN1 pseudogene 1) #2 scored G2 robust z-score -1.02; G2 cells, % of GMNN control -4.22.
Depletion of MFN1P1 (MFN1 pseudogene 1) #3 gave: G2 robust z-score -0.656; G2 cells, % of GMNN control -1.65.
BAX (BCL2 associated X, apoptosis regulator) #1 showed G2 robust z-score -0.739; G2 cells, % of GMNN control -2.23.
BAX (BCL2 associated X, apoptosis regulator) #2 showed G2 robust z-score 0.022; G2 cells, % of GMNN control 3.12.
Depletion of BAX (BCL2 associated X, apoptosis regulator) #3 gave: G2 robust z-score -0.581; G2 cells, % of GMNN control -1.12.
SLC7A7 #1 gave G2 robust z-score -0.857; G2 cells, % of GMNN control -3.07.
Against SLC7A7 #2 the deposit lists G2 robust z-score -0.62; G2 cells, % of GMNN control -1.39.
SLC7A7 #3 scored G2 robust z-score 0.282; G2 cells, % of GMNN control 4.95.
For HIRIP3 (HIRA interacting protein 3) #1, the values are G2 robust z-score 2.2; G2 cells, % of GMNN control 18.4.
Against HIRIP3 (HIRA interacting protein 3) #2, the entry reads G2 robust z-score -0.833; G2 cells, % of GMNN control -2.89.
After knock-down of HIRIP3 (HIRA interacting protein 3) #3 the results were G2 robust z-score -0.781; G2 cells, % of GMNN control -2.52.
